Measurements reported in PubChem BioAssay AID493014 (National Center for Advancing Translational Sciences (NCATS), 2011).
The other results are listed elsewhere or left out. The main result of the screen is listed elsewhere. These columns were measured beside it and carry no call. Most of these compounds were active or inconclusive in the main read-out, so they are no random draw. Words in brackets tell the shape of the fitted curve; partial curves, single points and poor fits give uncertain potencies.

Test: qHTS Assay to Find Inhibitors of Chronic Active B-Cell Receptor Signaling
Settings: ABC-DLBCL IkBa-CBG/CBR reporter, luminescence ratio (green luciferase fused to IkBa over red control in TMD8 lymphoma cells), 4 h
Procedure, shortened: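 TMD8 ABC-DLBCL cells carrying doxycycline-inducible green luciferase fused to IkappaBalpha plus unfused red luciferase were exposed to compounds (up to 46 uM) for 4 hrs at 37C. Activity came from the overlap-corrected green/red luminescence ratio.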

[1] = measured here: CBR red luminescence, cell number
[2] = measured here: IkBa-CBG green luminescence

Row | Compound | AC50 [1] | AC50 [2]
1 | CC(=O)Nc1ccc(N=c2cc([N+](=O)[O-])cc(Cl)n2O)cc1 | 1.41 µM [rising, full curve, poor fit] | –
2 | N#CC1=C(S)N(c2ccccc2)C(c2ccc(-c3cccc(Cl)c3)o2)NC1=O (centres undefined) | – | 16.4 µM [falling, partial curve, poor fit]
3 | COc1cccc(NC(=O)Cn2c(SCC(=O)N3CCOCC3)nc3ccccc32)c1 | 29.1 µM [rising, single point] | –
4 | CCc1noc(C)c1C(=O)OCC(=O)Nc1ccccc1SC | 7.31 µM [falling, partial curve, poor fit] | –
5 | CCCc1nnc(SCC(=O)Nc2ccc3c(c2)OCCO3)n1CCOC | 3.16 µM [rising, single point] | –
6 | C[C@]12c3[nH]c4ccc(Cl)cc4c3CCN1C(=O)[C@@H](CC(=O)NCC13CC4CC(CC(C4)C1)C3)C[C@@H]2C(=O)N1CCCCC1 | 1.84 µM [rising, partial curve] | –
7 | Cc1ccc(S(=O)(=O)c2nc(S(C)(=O)=O)sc2N2CCC(C)CC2)cc1 | 4.47 µM [rising, partial curve, poor fit] | –
8 | O=C(C1CC(=O)N(c2ccc(F)cc2)C1)N1CCCCC1 (centres undefined) | 11.2 µM [rising, partial curve, poor fit] | –
9 | Cc1cccc(-c2nc(=S)c3c(n2Cc2ccco2)CCCC3)c1 | 16.4 µM [falling, single point] | –
10 | O=C(NNC(=O)[C@@H]1CCCC[C@@H]1C(=O)O)c1cccs1 | 9.2 µM [falling, partial curve, poor fit] | –
11 | Cc1cccc2sc(NC(=O)CNS(=O)(=O)c3ccc(Br)s3)nc12 | 8.91 µM [falling, partial curve, poor fit] | 11.2 µM [rising, partial curve, poor fit]
12 | CCCCC(=O)NC(=S)Nc1c(C)cc(Br)cc1C | 0.731 µM [rising, full curve, poor fit] | –
13 | c1ccc(Nc2ccc3c4c(cccc24)CC3)cc1 | 13 µM [rising, partial curve] | –
14 | CC(=O)Nc1ccc(C(=O)OCc2ccc(F)cc2Cl)cc1 | 11.2 µM [rising, partial curve, poor fit] | –
15 | CCn1c(C)nc2cc(C(=O)NNC(=S)Nc3ccc(C)cc3)ccc21 | 10 µM [rising, partial curve, poor fit] | –
16 | Cc1[nH]n(-c2ccccc2)c(=O)c1N=Nc1c(O)cc(S(=O)(=O)N(C)C)c2ccccc12 | 2.06 µM [falling, full curve] | –
17 | Cc1ccnc(Sc2ccc([N+](=O)[O-])cc2[N+](=O)[O-])n1 | 2.31 µM [falling, partial curve] | 14.6 µM [rising, partial curve, poor fit]

Sorted by heavy-atom count (low to high): part of the list above.
Row | Compound | AC50 [1] | AC50 [2]
8 | O=C(C1CC(=O)N(c2ccc(F)cc2)C1)N1CCCCC1 (centres undefined) | 11.2 µM [rising, partial curve, poor fit] | –
4 | CCc1noc(C)c1C(=O)OCC(=O)Nc1ccccc1SC | 7.31 µM [falling, partial curve, poor fit] | –
9 | Cc1cccc(-c2nc(=S)c3c(n2Cc2ccco2)CCCC3)c1 | 16.4 µM [falling, single point] | –
